# Measured values published in PubChem BioAssay AID1117319 (Southern Research Institute, 2015).
# Chains of the proteins cited; added tags and fusions are not shown. Lines headed by an entry give the natural chain unless they say otherwise; changes in a name come on top.
# UniProt P69720: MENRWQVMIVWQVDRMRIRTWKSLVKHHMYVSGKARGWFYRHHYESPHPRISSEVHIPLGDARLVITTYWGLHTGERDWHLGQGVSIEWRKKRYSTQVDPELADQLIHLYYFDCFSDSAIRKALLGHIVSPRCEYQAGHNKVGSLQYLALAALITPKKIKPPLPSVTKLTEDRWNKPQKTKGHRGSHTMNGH
# UniProt P69721: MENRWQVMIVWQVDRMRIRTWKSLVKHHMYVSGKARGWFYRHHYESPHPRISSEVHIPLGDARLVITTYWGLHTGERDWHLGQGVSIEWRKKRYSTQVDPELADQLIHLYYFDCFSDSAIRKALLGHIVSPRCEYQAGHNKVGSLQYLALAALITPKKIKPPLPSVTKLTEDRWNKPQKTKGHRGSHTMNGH
# UniProt P69722: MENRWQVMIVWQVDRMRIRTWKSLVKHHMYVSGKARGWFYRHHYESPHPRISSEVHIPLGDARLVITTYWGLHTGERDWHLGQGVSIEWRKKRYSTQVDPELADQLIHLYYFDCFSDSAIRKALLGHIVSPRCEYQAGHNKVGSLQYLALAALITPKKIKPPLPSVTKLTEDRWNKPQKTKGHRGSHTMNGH
# UniProt P69723: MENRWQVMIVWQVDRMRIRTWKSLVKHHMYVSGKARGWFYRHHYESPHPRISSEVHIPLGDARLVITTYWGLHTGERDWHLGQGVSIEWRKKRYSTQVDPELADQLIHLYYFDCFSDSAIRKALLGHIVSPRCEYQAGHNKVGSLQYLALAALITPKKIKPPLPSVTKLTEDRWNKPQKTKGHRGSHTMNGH
# UniProt Q9HC16: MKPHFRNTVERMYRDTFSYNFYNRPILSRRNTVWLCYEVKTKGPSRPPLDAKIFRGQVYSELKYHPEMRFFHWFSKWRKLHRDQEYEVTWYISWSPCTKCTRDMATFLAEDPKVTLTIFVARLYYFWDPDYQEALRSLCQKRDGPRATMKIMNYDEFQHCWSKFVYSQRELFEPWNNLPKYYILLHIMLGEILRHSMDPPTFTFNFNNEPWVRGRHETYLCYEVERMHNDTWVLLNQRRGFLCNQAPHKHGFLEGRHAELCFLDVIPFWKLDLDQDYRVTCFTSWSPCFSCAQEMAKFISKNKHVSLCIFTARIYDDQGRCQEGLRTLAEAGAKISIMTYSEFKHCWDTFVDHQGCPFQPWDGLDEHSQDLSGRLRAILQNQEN
# Hit rate of the full screen: of about 260,000 compounds, about 1,500 (0.58%) were called active. Inconclusive means that the source gave no clear call. Such entries were picked first, then a sample of the others.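 How the source made its calls: active means inhibition above a set limit at one or more doses, reproduced on every date tested; inconclusive means results disagree between test dates, or hit never tested in dose response; inactive means the rest.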
# Molecular target: Virion infectivity factor (Human immunodeficiency virus type 1 group M subtype B (isolate BH10)) + Virion infectivity factor (Human immunodeficiency virus type 1 group M subtype B (isolate BRU/LAI)) + Virion infectivity factor (Human immunodeficiency virus type 1 group M subtype B (isolate PCV12)) + Virion infectivity factor (Human immunodeficiency virus type 1 group M subtype B (isolate HXB2)) + DNA dC->dU-editing enzyme APOBEC-3G (Homo sapiens) (UniProt P69720+P69721+P69722+P69723+Q9HC16)
# Test: inhibitors of Vif binding to APOBEC3G peptide, primary screen, biochemical, TR-FRET, GST-Vif 1-94, biotin-A3G peptide, dose response retest (AID 1117319);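 further: Vif residues 1-94 fused to GST binding biotinylated APOBEC3G peptide 110-148; 0% = full assay without inhibitor and 100% = GST in place of GST-Vif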
# Details: active compounds read high
row,SMILES,inhibition
1,O=C1C=C(Nc2cccnc2)c2ccccc2C1=O,inactive: -2.43%
2,COc1cc(Cc2cnc(N)nc2N)cc(OC)c1OC,inconclusive: 39.9%
3,CCOC(=O)c1cnc2c(cnn2C)c1NCCCN(C)C,inconclusive: 49.1%
4,CCOC(=O)C1(Cc2cccc(OC)c2)CCCN(Cc2cc(C(C)C)n[nH]2)C1 (stereo not drawn),inconclusive: 34.9%
5,COc1ccc(Cl)cc1NS(=O)(=O)c1cc(Cl)ccc1OC,inconclusive: 33%
6,COc1ccc(CCNc2c(C)c(C)nc3ncnn23)cc1,inconclusive: 42.9%
7,CC1CCN(C(=O)N[C@@H](Cc2ccccc2)C(=O)O)CC1,inconclusive: 41.7%
8,CCCCOc1ccc(C2OC34CCCCC3C(C#N)(C#N)C2(C#N)C(=N)O4)cc1 (stereo not drawn),inconclusive: 35.3%
9,Cc1ccnc(N2C(=O)c3cccc4c([N+](=O)[O-])ccc(c34)C2=O)c1,inconclusive: 37.3%
10,Cn1cccc1/C=C1\SC(=Nc2ccccc2)NC1=O,inactive: -5.03%
11,O=C(O)c1ccc(S(=O)(=O)N2CCCCCC2)cc1,inactive: 1.58%
12,CC/C(=C/c1sc2ccc(C)cc2[n+]1CCCS(=O)(=O)[O-])SC,inconclusive: 33.9%
13,c1coc(-c2ncc[nH]2)c1,inactive: 0.85%
14,COc1ccc(CN(CCC(c2ccccc2)c2ccc(OC(C)C)cc2)C(=O)CCl)cc1OC (stereo not drawn),inconclusive: 36.1%
15,CCN1CCN(S(=O)(=O)Cc2ccccc2)CC1,inconclusive: 55.6%
16,CCOc1ccccc1N(CC)C(=O)Cn1ncc2c(=O)oc3ccccc3c21,inconclusive: 47.2%
17,Clc1ccccc1Cc1noc(CN2CCCCC2c2ccccn2)n1 (stereo not drawn),inactive: 2.88%
18,COc1c(O)cc2c(c1O)C(=O)CC(c1ccccc1)O2 (stereo not drawn),inactive: 2.35%
19,Cc1nnc(SCC(=O)NNC(=O)c2ccco2)n1-c1ccccc1,inactive: 6.15%
20,CCC(C)(C)NC(=O)C(c1ccc(C)cc1)N(CCN1CCOCC1)C(=O)CNC(=O)c1cccs1 (stereo not drawn),inactive: 2.09%
21,CCc1ccc(NC2=CC(=O)CC(c3ccco3)C2)cc1 (stereo not drawn),inconclusive: 46.5%
22,NC(=O)c1sc2nc3c(c(-c4cccs4)c2c1N)CCCCC3,inconclusive: 48.5%
23,COC(=O)c1c(N2C(=O)CC(Sc3ncccc3C(=O)O)C2=O)sc(C)c1C (stereo not drawn),inconclusive: 60.4%
24,OCCC1CN(Cc2cccc3nonc23)CCN1Cc1ccsc1 (stereo not drawn),inactive: 21.2%

row,SMILES,inhibition
1,CCCC(=O)NC(c1cccs1)c1cc([N+](=O)[O-])c2cccnc2c1O (stereo not drawn),inconclusive: 64.8%
2,CN1CCN(C(=O)c2cc3c(C(F)(F)F)nn(C)c3s2)CC1,inactive: 6.37%
3,COc1ccc(NC(=O)CSc2nnc(Cn3cnc4ccccc43)o2)cc1,inconclusive: 56.6%
4,CC(=O)Nc1ccc(OCC(O)Cn2c(C)nc3ccccc32)cc1 (stereo not drawn),inconclusive: 35.2%
5,CC1CCc2sc3nc(NCc4ccco4)n4ncnc4c3c2C1 (stereo not drawn),inconclusive: 41.3%
6,NS(=O)(=O)c1ccc(NC(=O)Nc2cccc(Cl)c2)cc1,inconclusive: 34.9%
7,COc1ccc(NC(=O)CN(C)C(=O)c2cc(-c3ccc(OC)cc3)nc3ccccc23)cc1,inactive: -5.94%
8,Cc1ccc(NC(=O)Nc2ccc3c(c2)nc(C)n3C)cc1,inactive: 66.9%
9,CN(Cc1nnc(SCC(=O)NCCc2ccccc2)n1C)S(=O)(=O)c1ccccc1,inconclusive: 41.5%
10,COc1ccc(C(=O)Nc2cccc(-c3nnc(-c4ccco4)o3)c2)cc1,inactive: -0.63%
11,O=C(Oc1ccccc1C(=O)N1CCOCC1)c1ccccc1,inconclusive: 44.7%
12,Cc1nc(CSc2nnc3scc(-c4ccccc4)n23)cs1,inconclusive: 53.1%
13,CCOC(=O)c1cccc(NC(=O)C2CCCN(S(=O)(=O)c3c(C)n[nH]c3C)C2)c1 (stereo not drawn),inconclusive: 37.6%
14,CC(=O)C1=C(O)CCC1=NCCc1ccccc1,inconclusive: 37.3%
15,CCCn1c(C)cc(C(=O)COC(=O)CN=C2NS(=O)(=O)c3ccccc32)c1C,inconclusive: 39.5%
16,CCC(C(=O)N1CCN(c2cccc(Cl)c2)CC1)c1ccccc1 (stereo not drawn),inconclusive: 43.9%
17,CCOc1ccc(S(=O)(=O)N2CCCCC2)cc1NC(=O)Cc1cccc(C(F)(F)F)c1,inconclusive: 56.9%
18,COc1ccc(C)cc1NC(=O)C12CCC(C)(C(=O)O1)C2(C)C (stereo not drawn),inconclusive: 34.1%
19,Cc1cc(C)nc(N(C#N)Cc2ccccc2)n1,inconclusive: 36.1%
20,Cc1nc2sc3c(c2c(=O)o1)CCC3,inactive: 11.5%
21,O=C(O)C(O)c1ccco1 (stereo not drawn),inconclusive: 64.1%
22,Cc1nc2ccc(NS(=O)(=O)c3cccc([N+](=O)[O-])c3)cc2s1,inactive: -2.07%
23,CC(=O)N=c1c(C#N)cc2c(=O)n3ccccc3nc2n1CCCOC(C)C,inconclusive: 42.8%
24,CCOc1ccc2nc(SCC(=O)N(C)C)[nH]c2c1,inconclusive: 57.6%

# Copied from the list.
# Value of `Cc1nc2sc3c(c2c(=O)o1)CCC3` under inhibition: inactive: 11.5%
# Value of `CN1CCN(C(=O)c2cc3c(C(F)(F)F)nn(C)c3s2)CC1` under inhibition: inactive: 6.37%

# Part of the list above, bar-delimited:
row | SMILES | inhibition
5 | COc1ccc(Cl)cc1NS(=O)(=O)c1cc(Cl)ccc1OC | inconclusive: 33%
15 | CCN1CCN(S(=O)(=O)Cc2ccccc2)CC1 | inconclusive: 55.6%
23 | COC(=O)c1c(N2C(=O)CC(Sc3ncccc3C(=O)O)C2=O)sc(C)c1C (stereo not drawn) | inconclusive: 60.4%
13 | CCOC(=O)c1cccc(NC(=O)C2CCCN(S(=O)(=O)c3c(C)n[nH]c3C)C2)c1 (stereo not drawn) | inconclusive: 37.6%

# The results go on.

row,SMILES,inhibition
1,CN(C)c1nc(NC(C)(C)C)nc(NC(C)(C)C)n1,inconclusive: 49.5%
2,CCOc1cc(C=C(C(=O)OC)C(=O)OC)ccc1OCc1ccc([N+](=O)[O-])cc1,inconclusive: 36.8%
3,Cc1nccc2[nH]c(=O)c(C(=O)NCCCN(C)C3CCCCC3)cc12,inconclusive: 41.1%
4,O=C(O)CCCNC(=O)c1ccccn1,inconclusive: 35%
5,COCCOC(=O)C1=C(C)NC(=O)NC1c1cn(-c2ccccc2)nc1-c1cccs1 (stereo not drawn),inconclusive: 49.8%
6,CCc1ccc(OC(=O)c2ccn(CC)n2)cc1,inconclusive: 46.2%
7,COc1ccccc1NC(=O)C(=O)N/N=C/c1ccc([N+](=O)[O-])s1,inactive: -6.16%
8,Cn1cccc1C1C(C#N)=C(N)OC2=C1C(=O)CCC2 (stereo not drawn),inconclusive: 42.1%
9,CCOc1ccc(CN2CCN(c3cc(C)nc4c5c(C)cc(C)nc5nn34)CC2)cc1,inconclusive: 43.2%
10,COc1ccc(-n2c(-c3ccc(Cl)cc3)c[n+]3c2CCCCC3)cc1,inconclusive: 34.9%
11,Cc1cc(S(=O)(=O)NCc2ccc(N3CCN(C)CC3)cc2)c(C)s1,inconclusive: 53%
12,O=C(COC(=O)C1CC2C=CC1C2)NCc1ccco1 (stereo not drawn),inconclusive: 46.5%
13,O=C(CC1CCS(=O)(=O)C1)NC1CCCCC1 (stereo not drawn),inconclusive: 37.6%
14,CCCCn1c(=NC(=O)c2ccc3c(c2)OCO3)c(C#N)cc2c(=O)n3cccc(C)c3nc21,inactive: 6.53%
15,Cc1ccc2cn[nH]c2c1N,inconclusive: 43.3%
16,O=C(CSc1ccccc1)NCc1ccc(F)cc1,inconclusive: 35.7%
17,COCCn1nnnc1C(C(C)C)N1CCSCC1 (stereo not drawn),inconclusive: 35.2%
18,CCOc1ccc2[nH]c(=O)c(C(c3nnnn3Cc3ccco3)N3CCCC(C)C3)cc2c1 (stereo not drawn),inconclusive: 44.9%
19,CCOc1cc(S(=O)(=O)N2CCCCC2)ccc1F,inconclusive: 36.3%
20,CCn1c(CCn2c3ccccc3c3ccccc32)n[nH]c1=S,inconclusive: 34.1%
21,C/C(=N\NC(=S)NCCc1ccccc1)c1ccc(C#N)cc1,inconclusive: 46.8%
22,N=c1scc(-c2ccccc2)n1/N=C/c1ccco1,inconclusive: 43.7%
23,COc1cc(/C=N/NC(=O)C(Cc2c[nH]c3ccccc23)NC(=O)OCC(C)C)cc([N+](=O)[O-])c1O (stereo not drawn),inconclusive: 37.4%
24,COc1ccc(C2=NOC(C(=O)Nc3ccc(C)cc3)C2)cc1OC (stereo not drawn),inconclusive: 35%

row,SMILES,inhibition
1,COC(=O)C1=C(C)NC(C)=C(C(=O)OC)C1c1ccc(NC(C)=O)cc1,inactive: -1.45%
2,Cc1c(C(=O)O)oc2c1/C(=N\O)CCC2,inconclusive: 40.4%
3,CC1(C)CC(=O)C(N=Nc2ccc3ncsc3c2)=C(O)C1,inconclusive: 45.1%
4,CCOC(=O)c1c(-c2ccc(Cl)cc2)cn2ccccc12,inactive: 13.8%
5,Cc1cc(-c2cn3ccccc3n2)c(C)n1-c1ccccc1,inconclusive: 36.9%
6,CC(C)C(C)(C#N)NC(=O)CSc1nnc(-c2ccncc2)n1Cc1ccccc1 (stereo not drawn),inconclusive: 38.5%
7,Cc1cc(Cl)ccc1OCC(=O)Nc1ccccc1N1CCOCC1,inconclusive: 37.9%
8,CCn1c(SCC(=O)c2ccccc2)nnc1-c1cc2cc(Br)ccc2o1,inconclusive: 50.2%
9,O=C(NNC(=S)NC(=O)c1cccs1)c1cccnc1,inconclusive: 45%
10,Clc1nc(Cl)nc(N(c2ccccc2)c2ccccc2)n1,inconclusive: 51.5%
11,CSc1nnc2c3ccccc3n(CCc3ccccc3)c2n1,inconclusive: 37.5%
12,Cn1c(CNC(=O)c2ccccc2F)nnc1SCC(=O)NCc1ccccc1,inconclusive: 42.7%
13,CCOC(=O)C1=C(C)N(c2ccc(C)c(C)c2)C(=O)/C1=C\c1ccco1,inconclusive: 61.3%
14,COc1cc(/C=C/C(=O)O)cc(S(=O)(=O)Nc2ccc3nc(C)sc3c2)c1OC,inconclusive: 40.5%
15,COc1ccc(N2CCN(CCNC(=O)CCS(=O)(=O)c3cccc4nsnc34)CC2)cc1,inconclusive: 44.5%
16,O=C1NCN(c2ccccc2)C12CCN(CCCC(c1ccc(F)cc1)c1ccc(F)cc1)CC2,inconclusive: 46.1%
17,O=C(ONc1ccc(N=NC(=O)c2ccccc2O)cc1)c1ccccc1,inconclusive: 49.5%
18,O=C1OCC/C1=C\c1ccccc1O,inconclusive: 13.7%
19,CCOC(=O)CC1C(=O)NCCN1S(=O)(=O)c1ccccc1Cl (stereo not drawn),inconclusive: 41.7%
20,COC(=O)C(C)N1C(=O)S/C(=C\c2ccc(-c3ccc(C(=O)O)cc3C)o2)C1=O (stereo not drawn),inactive: 15.9%
21,CC(=O)N(CC(=O)O)c1ccccc1,inconclusive: 37.8%
